Results on two sequences are retold here after paper PMC5207133.

The test system of this series is Ku70/80 heterodimer + XRCC4-DNA ligase IV (X4L4) + APLF. In words: SAXS. Particulars: native protein, protein details: GST removed by PreScission protease, folded or branched DNA.

For at least one entry, the source does not settle the construct or the ends of the probe. At least one verdict rests on a figure or table, not on a statement of the authors.

Take “CCCACCCAAAAATCAATAATCGACCCTTTCGACCCGCGC / GCGCGGGTTATTTGATTTTTGGGTGGGAAAAAAAAAA / TTTTTTTTTTCCCACCCAAAAATCAAATAATCGACCCTTTCGACCCGCGC / GCGCGGGTTATTTGATTTTTGGGTGGG [20bpDNA-10nt (stem-loop B plus complementary stem-loop)]”: where the note is “two-site complex”, the binding result was “binds”. With “CCCACCCAAAAATCAATAATCGACCCTTTCGACCCGCGC / GCGCGGGTTATTTGATTTTTGGGTGGGGTCGA [20bpDNA (stem-loop A)]”, for the setting “one-site complex”, the binding result is “binds”.
